# Laboratory results: the supplement of paper PMC11732987, “Enantioselective OTUD7B fragment discovery through chemoproteomics screening and high-throughput optimisation” (Communications Chemistry, 2025)
# Sequences of proteins named here, by UniProt entry; tags and fusion partners are left off. A change or cut given only in a name is not applied to a line headed by its entry.
# UniProt Q8IYD1: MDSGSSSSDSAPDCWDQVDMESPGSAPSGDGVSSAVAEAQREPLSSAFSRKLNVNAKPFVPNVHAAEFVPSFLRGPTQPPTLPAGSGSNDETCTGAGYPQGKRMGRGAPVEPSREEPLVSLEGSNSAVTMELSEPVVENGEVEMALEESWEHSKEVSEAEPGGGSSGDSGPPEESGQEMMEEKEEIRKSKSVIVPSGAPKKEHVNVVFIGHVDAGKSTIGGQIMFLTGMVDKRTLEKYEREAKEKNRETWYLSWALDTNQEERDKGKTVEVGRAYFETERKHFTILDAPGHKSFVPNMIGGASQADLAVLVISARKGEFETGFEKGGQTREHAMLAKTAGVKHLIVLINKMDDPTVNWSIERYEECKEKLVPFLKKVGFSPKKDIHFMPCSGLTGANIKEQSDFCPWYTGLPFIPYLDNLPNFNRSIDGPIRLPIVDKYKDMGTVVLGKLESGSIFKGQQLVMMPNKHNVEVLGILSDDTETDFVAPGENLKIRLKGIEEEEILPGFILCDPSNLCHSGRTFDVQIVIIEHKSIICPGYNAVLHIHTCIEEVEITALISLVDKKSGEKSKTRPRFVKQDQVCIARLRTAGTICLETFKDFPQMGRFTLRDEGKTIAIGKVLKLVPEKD
# This is one part of the list. The data scatter; read single values as rough.
# Target: T1, GSPT2 C93 (UniProt Q8IYD1)
# T1 sequence (whole entry): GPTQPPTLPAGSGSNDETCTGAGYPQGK
# Experiment: log2 mean competition ratio of IA-DTB cysteine labelling (DMSO/compound) (log2 ratio); higher = stronger cysteine engagement by compound
# Conditions: 50 µM; treatment time: 4 h; cell line lysate: HEK293T
# Method: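 IA-DTB competitive cysteine chemoproteomics in HEK293T RIPA lysate. Lysates were treated with compound 29 or 30 at 50 or 200 µM for 4 h, then IA-DTB (500 µM, 1 h), trypsin-digested, NeutrAvidin-enriched and analysed by diaPASEF. Competition ratio = intensity DMSO / intensity compound (n=4 treated, n=64 DMSO); binding: mean log2 CR ≥ 1 and p ≤ 0.05 plus QC filters. Target is the cysteine site.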
row,SMILES,log2 mean competition ratio
1,O=C(CCl)N[C@@H]1CCCc2ccccc21,0.0458
2,O=C(CCl)N[C@H]1CCCc2ccccc21,0.485

# Same assay, conditions: 200 µM; treatment time: 4 h; cell line lysate: HEK293T
row,SMILES,log2 mean competition ratio
1,O=C(CCl)N[C@@H]1CCCc2ccccc21,-0.183
2,O=C(CCl)N[C@H]1CCCc2ccccc21,-0.154
